# Assay results

Data taken from PubChem BioAssay AID1159506, deposited by NCATS (2015).

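Genome-wide siRNA knockdown in TC32 Ewing sarcoma cells, comparing luciferase light from an NR0B1-promoter reporter with a CMV-promoter reporter 48 hours after transfection. Each siRNA was applied at 20 nM. A z-score of the log NR0B1-over-CMV signal, less the median of siRNAs with the same seed; more negative means a stronger specific loss of the NR0B1 reporter.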

The strongest results of the screen are mostly left out here. Sequences are the guide (antisense) strand, without overhang.

siRNA,gene,seed-corrected z-score
AUCAUAACUGGAAUUAUCU,PHC1P1,-0.8052
UAAAUGGACAUUUACGGUA,CDKN2A,-0.5939
AUACAUCUGAUUGUUGGGC,FAM69A,0.03622
AGAGCUUUCAGUUGCAGCC,CCDC34,0.05523
UAGGUACCAACAUUGAUGC,IGLV5-39,-0.1091
AUUGUAGGCAGCUAAGUGG,ANKRD44,-0.91
UGCUCUUUCUGAAUCGUUC,RAB33B,-0.8595
AAAGUUAUGCACAACGCAG,PLPPR2,-0.06286
UGCGUGUUCAUGUAAAGCU,KCNN4,-0.4564
UAUCCGUUGUUGAAUAGGC,PDE5A,-0.006589
UUUGGUAAAUGAGAGUCCC,ZNF354B,-0.8579
UUGUUGUAGAAAGUCAGGC,SLC35C1,0.8659
UAUGAUUAACCCUUUCGGC,GADD45A,0.6572
UCUCAGCUCAGUAGUUGGG,CD151,-1.269
UCCUAUAUCUUUACUAAGG,ZNF527,0.2339
UGGUGUCCCACAUUGUUGG,PARP14,0.5999
UGAUUUGUGAGUGCAGAUG,CBFA2T2,0.01217
AAGGUUCCAAUAUCACAGG,SYT14,-0.02284
UCAGGAUGGAUAACAUAGU,C9orf24,0.4858
UAUGGAAGUACUGAGUCCC,SLC39A8,0.9078
AUGGUUGCAGCUUGGAUGC,IGDCC3,-0.8833
UUUGUGAGUAGAGAGGAGG,GPAT2,-1.593
UGACUCAUUAUGGAGCACC,FAM83H,0.719
UGGUAAAUCAGGAGAGAUC,GPR37,0.01114
AGGAUUAAAGAGUAUUUCC,ACTR6,0.09415
UUCACAUCUAGUAAGAUGG,EEF1B2P3,-0.7088
UUCUUCUGCAUAGAUGGUG,CD300LG,-0.6787
UCUAUCAUAAUGCUGUUCC,CAB39,0.09754
UCAUUCCACACGGAUCUUC,LOC729722,-0.1751
UUUGCAUUCGUUGUAUUCC,C5orf51,0.5214
UUGUUGGAAGGCUUAAGCG,POLR2A,-0.5902
UUCAAUCGCAUCUAGCUCC,AXDND1,-0.2832
AUUUCGAUAACGAUGUCCC,MYOF,1.471
UUCCUGUCCAGCUUAGAGG,C6orf222,0.534
UUGGGACCGACUUUUAACC,SGCG,-1.241
UUUUCGAUGAAUUGUUUUC,LACRT,0.4493
UCCUUAUGAAUCACCAUGC,PRSS46,-0.7132
AUAGUUCUUCAUAACGAGG,PINK1,-0.5719
AGCAUUCUCAGCAAGGAGC,FAAP100,0.8913
UAGGCUAAUCCAAUAGAUC,FST,1.631
UAUAUCGUCACUAUAGGUG,MEP1B,-0.265
UGACGUAUGGGAUCUUUGC,SLC2A9,0.03723
AAAGUAACCCACAUGAAGG,CALCOCO2,1.024
UGCCGUAUAAUUUUGCCUC,GRPEL1,-0.01115
UAAAUAACCCUGAAAUCUU,TMCO5B,0.3312
UCAACUGUUACCUCGUUCC,CDC16,0.1252
AUUGGUUUAGGAUAUAAUC,DTWD2,0.5938
UCUGUCGUCUGAUUUCUGC,MRPL32,-0.7061
UUUGCUGUUGGUGAAGGCC,DNASE1L3,-0.3876

The first 3 entries again:

* AUCAUAACUGGAAUUAUCU against PHC1P1 : seed-corrected z-score -0.8052
* UAAAUGGACAUUUACGGUA against CDKN2A : seed-corrected z-score -0.5939
* AUACAUCUGAUUGUUGGGC against FAM69A : seed-corrected z-score 0.03622